According to PubChem BioAssay AID720504 (National Center for Advancing Translational Sciences (NCATS), 2013):
The whole screen tested about 360,000 compounds, of which about 10,000 (2.8%) were called active. The inconclusive results got no clear call from the source; some entries with a clear call stand among them for comparison. Calls follow the shape of the dose curve; as a rule, active = well fitted inhibition curve with a large enough effect; inconclusive = small, poorly fitted or top-dose-only effect; inactive = flat fitted curve, though single readings scatter. Potencies of inconclusive entries are doubtful fits and often do not repeat.

Chains of the proteins cited; added tags and fusions are not shown.
UniProt P53350, whole entry, looked up: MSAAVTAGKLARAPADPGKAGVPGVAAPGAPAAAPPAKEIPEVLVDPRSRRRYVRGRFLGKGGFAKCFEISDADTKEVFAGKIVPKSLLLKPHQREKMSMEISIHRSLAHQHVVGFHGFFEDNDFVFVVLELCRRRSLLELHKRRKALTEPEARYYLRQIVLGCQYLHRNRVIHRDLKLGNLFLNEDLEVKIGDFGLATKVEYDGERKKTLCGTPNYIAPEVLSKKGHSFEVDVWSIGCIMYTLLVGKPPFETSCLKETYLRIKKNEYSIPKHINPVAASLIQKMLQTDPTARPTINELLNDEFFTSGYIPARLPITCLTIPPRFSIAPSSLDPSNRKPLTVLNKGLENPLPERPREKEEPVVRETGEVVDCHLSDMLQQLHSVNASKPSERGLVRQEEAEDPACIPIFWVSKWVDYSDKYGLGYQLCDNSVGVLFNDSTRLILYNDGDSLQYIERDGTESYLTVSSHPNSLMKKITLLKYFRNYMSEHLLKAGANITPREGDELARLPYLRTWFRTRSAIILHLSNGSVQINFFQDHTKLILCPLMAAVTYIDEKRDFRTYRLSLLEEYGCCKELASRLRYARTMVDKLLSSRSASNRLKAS

target: Serine/threonine-protein kinase PLK1 (Homo sapiens) (UniProt P53350); test: qHTS for Inhibitors of PLK1-PDB (polo-like kinase 1 - polo-box domain): Primary Screen; details: Plk1 PBD binding of FITC phosphopeptide, fluorescence polarization; also: nearly all actives have a fitted effect of over 65% in size; as to max response, negative = inhibition: series mostly up to about 57 µM
% is scaled to controls: 0 for no effect and ±100 for the full control effect; potency is read from the fitted curve at half-maximal effect.

SMILES	max response, negative = inhibition	Potency
CC(=O)c1ccc(S(=O)(=O)Oc2ccc(C(=O)O)cc2Cl)cc1	inactive: -9.67%	–
NC(=O)c1c(NC(=O)CN2CCCC2)sc2c1CCCC2	–	active: 2.99 µM
Cc1ccc(CN2CCN(/N=C/C(Br)=C\c3ccccc3)CC2)cc1	inactive: -10.5%	–
Nc1ccc2c(c1)C/C(=C/c1ccco1)C2=O	–	inconclusive: 16.8 µM [inhibitor, partial curve]
O=C(Oc1ccccc1C(=S)N1CCOCC1)c1cccc([N+](=O)[O-])c1	–	inconclusive: 23.8 µM [inhibitor, partial curve]
Cc1onc(-c2ccccc2)c1C(=O)OCCOc1ccccc1F	–	active: 26.7 µM
CC(C)N(C(=S)Nc1ccc(S(=O)(=O)N2CCOCC2)cc1)c1ccccc1	–	inconclusive: 29.9 µM [inhibitor, partial curve]
CCOc1ccc(CC(=O)OCN2C(=O)c3ccccc3C2=O)cc1	–	inconclusive: 26.7 µM [inhibitor, single point]
Cc1ccc(/C=N/n2c(C)nnc2C)o1	–	active: 21.2 µM
CCN(C(=S)NC(=O)Cc1ccc(OC)cc1)c1ccccc1	–	inconclusive: 29.9 µM [inhibitor, partial curve]
O=C(Nc1cccc([N+](=O)[O-])c1)Nc1cccs1	inactive: -16.8%	–
CCOc1cc(C=C2C(=O)c3ccccc3C2=O)ccc1OCC(=O)Nc1ccc(C)cc1	–	inconclusive: 0.377 µM [inhibitor, full curve]
CCCNC(=O)N1c2ccccc2Sc2ccccc21	inactive: -3.24%	–
Cc1ccc(NC(=O)c2ccco2)cc1C	–	active: 21.2 µM
CN(C(=O)/C=C/c1ccc([N+](=O)[O-])s1)c1ccccc1	–	inconclusive: 26.7 µM [inhibitor, partial curve]
O=C(OCC(=O)N1N=C(c2ccc(Cl)cc2)CC1c1ccco1)c1cncc(Br)c1 (stereo not drawn)	–	inconclusive: 23.8 µM [inhibitor, partial curve]
CC(=O)Nc1ccc(SCC(=O)Nc2ccccc2Oc2ccccc2)cc1	–	inconclusive: 29.9 µM [inhibitor, partial curve]
COc1cccc(-c2cc(C(=O)N/N=C/c3ccc(OC)c(COC(C)=O)c3)c3ccccc3n2)c1	–	active: 29.9 µM
O=C(O)C1Nc2c(Cl)cc(Cl)cc2C2C=CCC12 (stereo not drawn)	–	active: 7.52 µM
CCOC(=O)C1Nc2ccc(OC(F)(F)F)cc2C2C=CCC12 (stereo not drawn)	–	inconclusive: 21.2 µM [inhibitor, partial curve]
O=S(=O)(NNc1ccc(F)cc1F)c1cccc(Cl)c1	–	inconclusive: 29.9 µM [inhibitor, single point]
CC1CCN(c2ccc3c(c2)S(=O)(=O)c2cccc(C(=O)NCc4cccc(F)c4)c2C3=O)CC1	–	inconclusive: 23.8 µM [inhibitor, single point]
COc1ccccc1NC(=O)CCC(=O)c1ccc(-c2ccccc2)cc1	–	active: 29.9 µM
CNC(=O)c1c(C)[nH]c(=S)c(C#N)c1-c1ccco1	–	inconclusive: 26.7 µM [inhibitor, single point]
CN1CCc2c(sc3c2c(=O)n(-c2ccccc2)c2nnc(SCc4ccccc4)n32)C1	–	inconclusive: 21.2 µM [inhibitor, single point]

Quoted at random: 2 compounds from above.
SMILES	max response, negative = inhibition	Potency
Cc1ccc(CN2CCN(/N=C/C(Br)=C\c3ccccc3)CC2)cc1	inactive: -10.5%	–
CN(C(=O)/C=C/c1ccc([N+](=O)[O-])s1)c1ccccc1	–	inconclusive: 26.7 µM [inhibitor, partial curve]

Next part.

SMILES	max response, negative = inhibition	Potency
O=C(OCCN1C(=O)c2cccc3c(N4CCOCC4)ccc(c23)C1=O)c1ccccc1Cl	–	inconclusive: 37.7 µM [inhibitor, single point]
CN(C)c1cc(N/N=C/c2ccc(Cl)cc2)nc(N(C)C)n1	–	inconclusive: 16.8 µM [inhibitor, partial curve]
O=C(NC(C(=O)c1ccccc1)n1c(=O)cc[nH]c1=S)c1ccccc1 (stereo not drawn)	–	active: 26.7 µM
COc1cc(-c2cc(NC(C)=O)c3ncc(-c4ccc(F)cc4)n3c2)cc(OC)c1OC	–	inconclusive: 26.7 µM [inhibitor, single point]
CC(C)(C)NC(=O)C(=O)NCCC1=CCCCC1	–	active: 21.2 µM
O=C(Nc1ccc([N+](=O)[O-])cc1)c1ccccc1F	–	inconclusive: 8.44 µM [inhibitor, single point]
COc1ccc(NC(=S)NNc2ccc([N+](=O)[O-])cc2S(=O)(=O)Nc2ccc(C)cc2C)cc1	–	active: 26.7 µM
CC(C)Oc1ccc(C(=O)Nc2ccc3c(c2)n(C)c(=O)n3C)cc1	inactive: -10.4%	–
COc1cc(C(=O)COC(=O)C2CCN(c3ccc(C(F)(F)F)cn3)CC2)ccc1OC(F)F	inactive: -3.63%	–
O=C1CN(CC(=O)Nc2ccc(SC(F)F)cc2)CCN1	–	inconclusive: 16.8 µM [inhibitor, partial curve]
CCOC(=O)c1c(-c2ccccc2)oc2ccc(O)c(CN3CCOCC3)c12	–	active: 11.9 µM
CC(=O)Nc1ccc(S(=O)(=O)N2CCN(Cc3cccc([N+](=O)[O-])c3)CC2)cc1	–	inconclusive: 23.8 µM [inhibitor, single point]
O=C(CNCC1CCCO1)Nc1ccccc1N1CCCCCC1 (stereo not drawn)	–	inconclusive: 8.44 µM [inhibitor, single point]
O=C(Nc1cccc(C(=O)NC2CC2)c1)c1ccccc1	inactive: 6.9%	–
Cc1cc(C(F)F)nn1CC(=O)NCc1ccco1	inconclusive: -32.5% [inhibitor]	–
O=C(CN1C(=O)S/C(=C\C=C\c2ccccc2)C1=O)NC1CCS(=O)(=O)C1 (stereo not drawn)	–	inconclusive: 26.7 µM [inhibitor, partial curve]
CC(C)C1N(C(=O)CN2CCCCC2)CCN1S(=O)(=O)c1ccccc1 (stereo not drawn)	inactive: -0.876%	–
COC(=O)c1ccc(CO/N=C/c2ccc(OC)cc2)o1	inconclusive: -30.6% [inhibitor]	–
O=c1[nH][nH]c(=O)c2c(NS(=O)(=O)c3ccccc3)cccc12	–	inconclusive: 21.2 µM [inhibitor, single point]
COc1ccc(C=C2CS(=O)(=O)CC(=Cc3ccc(OC)cc3)C2=O)cc1	–	inconclusive: 18.9 µM [inhibitor, partial curve]
O=C1c2cccc3cccc(c23)C(=O)N1CCCCCc1n[nH]c(=S)o1	–	inconclusive: 33.6 µM [inhibitor, single point]
COCCNC(=O)C1CCCN(C(=O)c2cc(-c3cccs3)oc2C)CC1 (stereo not drawn)	inactive: -3.59%	–
COc1ccc(S(=O)(=O)N(CC(=O)N/N=C/c2cccs2)c2cc(C)cc(C)c2)cc1OC	inactive: -0.439%	–
CCC12CN3CCN(CC(C3)/C1=N\NC(=O)c1ccc(Cl)cc1)C2	–	inconclusive: 29.9 µM [inhibitor, single point]
COCc1cc(=O)[nH]c(SCC(=O)c2ccccc2)n1	inactive: -0.217%	–

A different layout for part of the listing above.
SMILES | max response, negative = inhibition | Potency
O=S(=O)(NNc1ccc(F)cc1F)c1cccc(Cl)c1 | – | inconclusive: 29.9 µM [inhibitor, single point]
CC1CCN(c2ccc3c(c2)S(=O)(=O)c2cccc(C(=O)NCc4cccc(F)c4)c2C3=O)CC1 | – | inconclusive: 23.8 µM [inhibitor, single point]
COc1ccccc1NC(=O)CCC(=O)c1ccc(-c2ccccc2)cc1 | – | active: 29.9 µM
CNC(=O)c1c(C)[nH]c(=S)c(C#N)c1-c1ccco1 | – | inconclusive: 26.7 µM [inhibitor, single point]

Later entries:

SMILES	max response, negative = inhibition	Potency
CC(NC(=O)Nc1ccc(O)cc1)(C(F)(F)F)C(F)(F)F	inactive: -3.78%	–
COc1ccccc1NS(=O)(=O)c1ccc2c(c1)NC(=O)C(C)S2 (stereo not drawn)	–	active: 26.7 µM
Nc1nc(-c2ccccc2)c(N=Nc2ccc(Cl)cc2)s1	–	inconclusive: 23.8 µM [inhibitor, partial curve]
Cc1ccc(-c2nc3ccccc3c(=O)n2NC(=S)N(C)C)cc1	–	active: 26.7 µM
Cc1ccc2oc(C(=O)NCc3ncc(C)[nH]3)c(C)c2c1	inactive: -9.62%	–
CCN(CC)Cc1c(C(=O)OC)nnn1-c1nonc1N	–	inconclusive: 33.6 µM [inhibitor, partial curve]
CCN(CC)C(=O)c1cn(-c2ccccc2)nc1-c1ccc2c(c1)OCCO2	–	inconclusive: 29.9 µM [inhibitor, single point]
COc1ccc2c(c1)c(=O)oc1c(C)c(OCc3cc(C(=O)O)oc3C)ccc12	–	inconclusive: 33.6 µM [inhibitor, partial curve]
O=C(CN1C(=O)NC2(CCCc3ccccc32)C1=O)NCc1ccc(Cl)cc1Cl (stereo not drawn)	inactive: -3.4%	–
CCOC(=O)CN1C(=O)CN(c2ccc(C)c(C)c2)C1=O	–	inconclusive: 29.9 µM [inhibitor, partial curve]
CC[n+]1c(C)sc2c3ccsc3ccc21	inactive: -20.4%	–
Nc1nc(CN2CCCCCC2)nc(Nc2ccc(F)cc2)n1	–	inconclusive: 29.9 µM [inhibitor, single point]
O=C(CSc1nnc(C2CC2)n1C1CC1)c1ccc(F)cc1	inactive: -1.29%	–
CCN(CC)S(=O)(=O)c1ccc(OCCNS(C)(=O)=O)cc1	–	active: 2.99 µM
Cc1c2cc(O)c(=O)cc-2oc2cc(O)c(O)cc12	–	active: 2.67 µM
CN1C(=O)/C(=N\OC(=O)c2cccc3ccccc23)c2ccccc21	–	inconclusive: 5.32 µM [inhibitor, partial curve]
COC(=O)c1cc2c(ccn2-c2ccc(F)cc2)n1CC(C)C	inactive: -0.0177%	–
Cc1ccc(S(=O)(=O)NC(C(=O)N2CCN(S(=O)(=O)c3cccc(F)c3)CC2)C(C)C)cc1 (stereo not drawn)	inactive: -15.1%	–
COCCN(C(=O)CSc1nnc(Nc2ccccc2F)s1)c1c(N)n(Cc2ccccc2)c(=O)[nH]c1=O	–	inconclusive: 29.9 µM [inhibitor, partial curve]
O=C(O)c1ccc2c(c1)C(=O)N(c1ccc(/C=C/C(=O)c3ccccc3)cc1)C2=O	–	inconclusive: 29.9 µM [inhibitor, partial curve]
Cc1cc(C(=O)CCl)c(C)n1CC1COc2ccccc2O1 (stereo not drawn)	–	inconclusive: 16.8 µM [inhibitor, partial curve]
COCC(C)n1c(C)cc(C(=O)CN2C(=O)NC3(CCCCC3C)C2=O)c1C (stereo not drawn)	inactive: 0.14%	–
CN(C)c1ccc(C=c2c3ccccc3n3c2cc(-c2ccccc2)[n+]3C)cc1	inactive: -0.547%	–
